The values that follow come from patent publication US20090285803A1.

No constants are given. Whether binding was seen depends on the method and setting. Some results given as binding are weak or reduced against the parent protein; the word gives no strength.

For assay [1], the target named is T1, Homo sapiens hypothetical protein from clone 643 (LOC57228), alternative ORF homologous to SMAG (human) (UniProt Q0VAQ4).
T1 sequence (looked up): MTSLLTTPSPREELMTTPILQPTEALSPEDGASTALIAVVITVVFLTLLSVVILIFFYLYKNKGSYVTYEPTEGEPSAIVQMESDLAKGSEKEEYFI
Kind of assay: expression cloning; AP-fusion bait (20-50 nM) on transfected COS7 cells, chromogenic AP staining.

In a further assay the target is T2, Nogo Receptor (human) (UniProt Q9BZR6).
T2 sequence (looked up): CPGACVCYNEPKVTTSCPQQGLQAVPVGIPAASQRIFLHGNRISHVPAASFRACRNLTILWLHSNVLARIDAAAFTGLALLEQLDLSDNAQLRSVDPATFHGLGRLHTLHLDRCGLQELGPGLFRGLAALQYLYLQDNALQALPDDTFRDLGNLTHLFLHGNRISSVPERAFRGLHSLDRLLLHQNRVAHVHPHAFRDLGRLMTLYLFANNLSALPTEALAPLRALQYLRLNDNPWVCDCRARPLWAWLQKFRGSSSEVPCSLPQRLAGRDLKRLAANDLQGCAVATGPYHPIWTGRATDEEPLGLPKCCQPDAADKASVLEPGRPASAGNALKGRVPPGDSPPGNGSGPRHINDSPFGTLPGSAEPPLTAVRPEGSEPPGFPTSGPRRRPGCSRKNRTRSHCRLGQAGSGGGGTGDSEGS
The assay is described as above.

B1: MAG-AP (ligand, UniProt P20916 20-516, looked up, not shown: large carriers)
chain: GHWGAWMPSSISAFEGTCVSIPCRFDFPDELRPAVVHGVWYFNSPYPKNYPPVVFKSRTQVVHESFQGRSRLLGDLGLRNCTLLLSNVSPELGGKYYFRGDLGGYNQYTFSEHSVLDIVNTPNIVVPPEVVAGTEVEVSCMVPDNCPELRPELSWLGHEGLGEPAVLGRLREDEGTWVQVSLLHFVPTREANGHRLGCQASFPNTTLQFEGYASMDVKYPPVIVEMNSSVEAIEGSHVSLLCGADSNPPPLLTWMRDGTVLREAVAESLLLELEEVTPAEDGVYACLAENAYGQDNRTVGLSVMYAPWKPTVNGTMVAVEGETVSILCSTQSNPDPILTIFKEKQILSTVIYESELQLELPAVSPEDDGEYWCVAENQYGQRATAFNLSVEFAPVLLLESHCAAARDTVQCLCVVKSNPEPSVAFELPSRNVTVNESEREFVYSERSGLVLTSILTLRGQAQAPPRVICTARNLYGAKSLELPFQGAHRLMWAKIGP
With B1, the binding result (in assay [1]; in the assay with Nogo Receptor (human)) was “binds” each time.
